Test results reported in patent US20170247716A1 (PIONEER HI BRED INTERNATIONAL, published 2017).
Results are given in words; binding and its absence hold for the method and conditions named. Some results given as binding are weak or reduced against the parent protein; the word gives no strength. For part of these data: Tags and fused reporters may be left off the sequences shown.

Chains of the proteins cited; added tags and fusions are not shown.
UniProt Q9ZWT2: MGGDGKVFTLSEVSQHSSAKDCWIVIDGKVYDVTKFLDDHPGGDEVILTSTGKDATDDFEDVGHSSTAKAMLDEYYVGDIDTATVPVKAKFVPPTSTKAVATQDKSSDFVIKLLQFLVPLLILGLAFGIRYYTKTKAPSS

Legend:
[1] = target: T1, nGFP-AtRTE1 (Aequorea coerulescens; Arabidopsis) (UniProt F4ITL6); assay: BiFC in leaves of Arabidopsis F1 plants, positive control
T1 sequence (looked up): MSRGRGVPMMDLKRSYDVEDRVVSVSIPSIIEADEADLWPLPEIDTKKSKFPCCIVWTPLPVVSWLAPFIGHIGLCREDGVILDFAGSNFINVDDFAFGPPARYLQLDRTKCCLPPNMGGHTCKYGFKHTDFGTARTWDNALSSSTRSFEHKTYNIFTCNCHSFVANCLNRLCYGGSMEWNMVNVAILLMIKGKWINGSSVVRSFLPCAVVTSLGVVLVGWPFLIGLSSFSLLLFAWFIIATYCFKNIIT

AtRTE1-Cub-PLV = target: T2, AtRTE1-Cub-PLV (Arabidopsis, UniProt F4ITL6 1-250); assay: yeast split-ubiquitin two-hybrid
T2 construct: Bait of the mating-based split-ubiquitin yeast two-hybrid system; also called AtRTE1 bait construct; not shown: C-terminal half of ubiquitin (Cub); synthetic transcription factor PLV (protease A-LexA-VP16)
T2 sequence (looked up): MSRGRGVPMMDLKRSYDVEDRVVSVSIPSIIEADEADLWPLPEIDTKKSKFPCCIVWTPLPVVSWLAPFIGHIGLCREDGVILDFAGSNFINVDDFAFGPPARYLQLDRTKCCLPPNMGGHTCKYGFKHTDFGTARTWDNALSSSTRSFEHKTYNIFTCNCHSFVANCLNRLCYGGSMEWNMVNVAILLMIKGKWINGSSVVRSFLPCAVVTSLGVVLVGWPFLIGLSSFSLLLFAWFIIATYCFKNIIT
Procedure: (B) β-Galactosidase assay for yeast diploid cells expressing AtRTE1-Cub-PLV and various ARGOS-NubG fusion proteins. Yeast cells were cultured in SC-Leu-Trp liquid medium. The β-Galactosidase (β-Gal) activity assay uses […] as a substrate. (C) Growth of yeast diploid cells from the mating of haploid strains containing ARGOS-NubG constructs and negative control […] construct. The plates were incubated at 28° C. for 4 days. (D) Liquid β-Galactosidase assay for yeast diploid cells expressing negative control AtCHX20-Cub-PLV and various ARGOS-NubG fusion proteins.
(A) Growth of yeast diploid cells on SC dropout media to show protein-protein interaction of ZmRTL4 with Arabidopsis and maize ARGOS. The SC-Leu-Trp and SC-Leu-Trp-His-Ade media contain 134 and 375 μM Met, respectively. The plates were incubated at 28° C. for 4 days. (B) β-Galactosidase assay for yeast diploid cells expressing ZmRTE4-Cub-PLV and various ARGOS-NubG fusion proteins. (C) Growth of yeast diploid cells on SC dropout media to show protein-protein interaction of ZmRTL2 with Arabidopsis and maize ARGOS. The SC-Leu-Trp and SC-Leu-Trp-His-Ade media contain 134 μM Met. The plates were incubated at 28° C. for 5 days. (D) β-Galactosidase assay for yeast diploid cells expressing ZmRTE2-Cub-PLV and various ARGOS-NubG fusion proteins. […]

ZmRTL4-Cub-PLV (maize) = target: T3, ZmRTL4-Cub-PLV (maize); assay: yeast split-ubiquitin two-hybrid
T3 sequence: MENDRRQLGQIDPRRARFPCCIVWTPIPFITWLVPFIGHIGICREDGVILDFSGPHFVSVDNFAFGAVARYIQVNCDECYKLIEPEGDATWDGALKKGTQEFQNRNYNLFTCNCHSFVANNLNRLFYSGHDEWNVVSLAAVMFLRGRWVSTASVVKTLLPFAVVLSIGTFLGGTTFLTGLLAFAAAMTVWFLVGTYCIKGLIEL

cGFP-AtCb5D (from UniProt Q9ZWT2 1-140)
binding [1]: binds

B1: AtARGOS-NubG (protein, UniProt Q6NMD6 1-130, looked up, not shown: large carriers)
chain: MIREISNLQKDIINIQDSYSNNRVMDVGRNNRKNMSFRSSPEKSKQELRRSFSAQKRMMIPANYFSLESLFLLVGLTASLLILPLVLPPLPPPPFMLLLVPIGIMVLLVVLAFMPSSHSNANTDVTCNFM
binding (AtRTE1-Cub-PLV): binds
binding (ZmRTL4-Cub-PLV (maize)): binds
